Measured values taken from article PMC3391262.
No constants are given. Whether binding was seen depends on the method and setting. Some results given as binding are weak or reduced against the parent protein; the word gives no strength. For part of these data: Where a sequence is shown, tags or fusion partners need not be part of it.

Amino acid sequences for entries named in this document (tags omitted). A change or cut given only in a name is not applied to a line headed by its entry.
UniProt O15230: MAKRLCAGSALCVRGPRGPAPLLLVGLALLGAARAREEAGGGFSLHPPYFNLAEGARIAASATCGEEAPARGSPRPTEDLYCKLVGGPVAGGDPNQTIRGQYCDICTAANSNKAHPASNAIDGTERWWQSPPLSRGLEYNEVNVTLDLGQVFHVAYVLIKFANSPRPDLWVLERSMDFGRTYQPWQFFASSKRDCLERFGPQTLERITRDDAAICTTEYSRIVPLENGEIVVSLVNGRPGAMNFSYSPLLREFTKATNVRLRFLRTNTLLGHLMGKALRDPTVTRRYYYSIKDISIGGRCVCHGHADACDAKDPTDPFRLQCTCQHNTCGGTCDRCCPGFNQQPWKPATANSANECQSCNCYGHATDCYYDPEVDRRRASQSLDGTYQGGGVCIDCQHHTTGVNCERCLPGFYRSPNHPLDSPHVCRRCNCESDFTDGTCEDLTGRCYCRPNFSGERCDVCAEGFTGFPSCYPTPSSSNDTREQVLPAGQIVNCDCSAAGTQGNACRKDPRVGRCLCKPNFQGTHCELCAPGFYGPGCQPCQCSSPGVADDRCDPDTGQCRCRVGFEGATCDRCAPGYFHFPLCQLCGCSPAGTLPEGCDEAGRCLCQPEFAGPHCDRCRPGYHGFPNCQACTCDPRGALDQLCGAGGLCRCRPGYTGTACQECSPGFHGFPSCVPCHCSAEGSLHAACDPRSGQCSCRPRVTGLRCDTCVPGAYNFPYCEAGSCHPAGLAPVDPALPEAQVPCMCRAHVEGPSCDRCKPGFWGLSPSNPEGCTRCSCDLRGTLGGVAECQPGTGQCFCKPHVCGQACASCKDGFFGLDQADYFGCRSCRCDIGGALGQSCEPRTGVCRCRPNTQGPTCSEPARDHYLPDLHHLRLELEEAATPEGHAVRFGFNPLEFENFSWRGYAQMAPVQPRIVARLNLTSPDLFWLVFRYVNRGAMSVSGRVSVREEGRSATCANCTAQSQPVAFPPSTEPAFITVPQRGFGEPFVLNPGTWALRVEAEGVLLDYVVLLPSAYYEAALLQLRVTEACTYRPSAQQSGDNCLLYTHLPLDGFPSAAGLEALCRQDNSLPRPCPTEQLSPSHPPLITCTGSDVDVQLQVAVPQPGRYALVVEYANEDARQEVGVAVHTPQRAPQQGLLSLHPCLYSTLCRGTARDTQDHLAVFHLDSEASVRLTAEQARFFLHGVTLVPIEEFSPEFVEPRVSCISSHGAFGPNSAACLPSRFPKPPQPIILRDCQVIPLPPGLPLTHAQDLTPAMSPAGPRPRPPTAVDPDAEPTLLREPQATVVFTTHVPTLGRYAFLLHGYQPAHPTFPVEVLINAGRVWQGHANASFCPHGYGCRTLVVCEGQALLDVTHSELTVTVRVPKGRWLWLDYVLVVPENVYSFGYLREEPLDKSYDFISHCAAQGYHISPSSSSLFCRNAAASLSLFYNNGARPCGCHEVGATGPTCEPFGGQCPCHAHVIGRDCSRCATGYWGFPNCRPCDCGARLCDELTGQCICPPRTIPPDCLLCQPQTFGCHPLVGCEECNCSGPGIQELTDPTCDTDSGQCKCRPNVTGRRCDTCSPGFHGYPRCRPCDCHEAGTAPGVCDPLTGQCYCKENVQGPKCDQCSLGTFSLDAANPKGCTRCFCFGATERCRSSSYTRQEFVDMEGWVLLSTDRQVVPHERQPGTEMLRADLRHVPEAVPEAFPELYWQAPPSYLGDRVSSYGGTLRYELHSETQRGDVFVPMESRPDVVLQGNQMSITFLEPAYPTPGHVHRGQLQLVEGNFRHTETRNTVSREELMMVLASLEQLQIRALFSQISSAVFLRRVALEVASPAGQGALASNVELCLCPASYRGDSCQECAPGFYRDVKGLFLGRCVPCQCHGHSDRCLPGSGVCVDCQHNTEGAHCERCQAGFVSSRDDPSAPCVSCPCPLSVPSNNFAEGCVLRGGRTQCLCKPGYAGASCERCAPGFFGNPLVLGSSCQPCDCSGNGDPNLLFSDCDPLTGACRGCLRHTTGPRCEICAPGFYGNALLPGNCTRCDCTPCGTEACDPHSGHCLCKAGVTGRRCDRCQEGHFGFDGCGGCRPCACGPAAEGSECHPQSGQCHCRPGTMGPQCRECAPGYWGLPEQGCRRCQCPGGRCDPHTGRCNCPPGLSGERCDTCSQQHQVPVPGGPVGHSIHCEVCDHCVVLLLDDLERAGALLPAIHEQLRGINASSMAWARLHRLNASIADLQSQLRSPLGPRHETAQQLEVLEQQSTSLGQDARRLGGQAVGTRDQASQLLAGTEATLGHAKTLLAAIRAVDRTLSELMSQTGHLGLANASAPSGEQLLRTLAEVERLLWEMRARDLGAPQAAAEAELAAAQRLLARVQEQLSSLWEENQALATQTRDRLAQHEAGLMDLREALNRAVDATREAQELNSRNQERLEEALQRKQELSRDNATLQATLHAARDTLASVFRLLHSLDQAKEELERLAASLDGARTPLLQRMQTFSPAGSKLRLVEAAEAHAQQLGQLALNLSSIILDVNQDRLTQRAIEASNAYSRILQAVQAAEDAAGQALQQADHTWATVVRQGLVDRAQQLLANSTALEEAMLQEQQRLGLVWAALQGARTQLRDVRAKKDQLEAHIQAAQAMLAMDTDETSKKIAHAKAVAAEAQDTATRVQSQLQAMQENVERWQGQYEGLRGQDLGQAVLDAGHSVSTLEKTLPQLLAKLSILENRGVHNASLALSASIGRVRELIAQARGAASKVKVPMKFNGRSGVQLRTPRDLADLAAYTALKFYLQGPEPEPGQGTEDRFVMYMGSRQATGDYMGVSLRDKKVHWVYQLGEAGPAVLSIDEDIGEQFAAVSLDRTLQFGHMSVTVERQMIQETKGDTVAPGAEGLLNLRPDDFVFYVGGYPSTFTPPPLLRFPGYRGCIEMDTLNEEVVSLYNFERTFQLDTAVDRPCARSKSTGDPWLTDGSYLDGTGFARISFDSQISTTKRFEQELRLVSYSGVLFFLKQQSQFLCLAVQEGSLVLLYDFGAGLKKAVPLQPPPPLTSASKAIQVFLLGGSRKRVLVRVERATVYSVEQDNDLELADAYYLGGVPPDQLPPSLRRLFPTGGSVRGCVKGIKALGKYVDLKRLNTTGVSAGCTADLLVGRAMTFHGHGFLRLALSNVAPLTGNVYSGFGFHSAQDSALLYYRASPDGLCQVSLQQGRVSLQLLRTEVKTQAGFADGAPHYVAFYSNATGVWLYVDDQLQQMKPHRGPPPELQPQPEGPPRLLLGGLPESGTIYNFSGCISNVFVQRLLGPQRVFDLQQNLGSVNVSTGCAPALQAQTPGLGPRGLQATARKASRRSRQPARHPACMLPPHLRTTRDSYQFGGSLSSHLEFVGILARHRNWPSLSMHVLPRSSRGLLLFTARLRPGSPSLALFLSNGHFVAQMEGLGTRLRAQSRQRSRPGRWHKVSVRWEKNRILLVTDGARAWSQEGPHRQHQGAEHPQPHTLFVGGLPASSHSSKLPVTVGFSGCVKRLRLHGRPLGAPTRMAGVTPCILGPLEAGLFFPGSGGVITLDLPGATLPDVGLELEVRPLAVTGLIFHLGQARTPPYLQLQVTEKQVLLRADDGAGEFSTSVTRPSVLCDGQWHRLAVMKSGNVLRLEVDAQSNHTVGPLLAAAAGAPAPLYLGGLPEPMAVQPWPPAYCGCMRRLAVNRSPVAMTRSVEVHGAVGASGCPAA
UniProt Q16363: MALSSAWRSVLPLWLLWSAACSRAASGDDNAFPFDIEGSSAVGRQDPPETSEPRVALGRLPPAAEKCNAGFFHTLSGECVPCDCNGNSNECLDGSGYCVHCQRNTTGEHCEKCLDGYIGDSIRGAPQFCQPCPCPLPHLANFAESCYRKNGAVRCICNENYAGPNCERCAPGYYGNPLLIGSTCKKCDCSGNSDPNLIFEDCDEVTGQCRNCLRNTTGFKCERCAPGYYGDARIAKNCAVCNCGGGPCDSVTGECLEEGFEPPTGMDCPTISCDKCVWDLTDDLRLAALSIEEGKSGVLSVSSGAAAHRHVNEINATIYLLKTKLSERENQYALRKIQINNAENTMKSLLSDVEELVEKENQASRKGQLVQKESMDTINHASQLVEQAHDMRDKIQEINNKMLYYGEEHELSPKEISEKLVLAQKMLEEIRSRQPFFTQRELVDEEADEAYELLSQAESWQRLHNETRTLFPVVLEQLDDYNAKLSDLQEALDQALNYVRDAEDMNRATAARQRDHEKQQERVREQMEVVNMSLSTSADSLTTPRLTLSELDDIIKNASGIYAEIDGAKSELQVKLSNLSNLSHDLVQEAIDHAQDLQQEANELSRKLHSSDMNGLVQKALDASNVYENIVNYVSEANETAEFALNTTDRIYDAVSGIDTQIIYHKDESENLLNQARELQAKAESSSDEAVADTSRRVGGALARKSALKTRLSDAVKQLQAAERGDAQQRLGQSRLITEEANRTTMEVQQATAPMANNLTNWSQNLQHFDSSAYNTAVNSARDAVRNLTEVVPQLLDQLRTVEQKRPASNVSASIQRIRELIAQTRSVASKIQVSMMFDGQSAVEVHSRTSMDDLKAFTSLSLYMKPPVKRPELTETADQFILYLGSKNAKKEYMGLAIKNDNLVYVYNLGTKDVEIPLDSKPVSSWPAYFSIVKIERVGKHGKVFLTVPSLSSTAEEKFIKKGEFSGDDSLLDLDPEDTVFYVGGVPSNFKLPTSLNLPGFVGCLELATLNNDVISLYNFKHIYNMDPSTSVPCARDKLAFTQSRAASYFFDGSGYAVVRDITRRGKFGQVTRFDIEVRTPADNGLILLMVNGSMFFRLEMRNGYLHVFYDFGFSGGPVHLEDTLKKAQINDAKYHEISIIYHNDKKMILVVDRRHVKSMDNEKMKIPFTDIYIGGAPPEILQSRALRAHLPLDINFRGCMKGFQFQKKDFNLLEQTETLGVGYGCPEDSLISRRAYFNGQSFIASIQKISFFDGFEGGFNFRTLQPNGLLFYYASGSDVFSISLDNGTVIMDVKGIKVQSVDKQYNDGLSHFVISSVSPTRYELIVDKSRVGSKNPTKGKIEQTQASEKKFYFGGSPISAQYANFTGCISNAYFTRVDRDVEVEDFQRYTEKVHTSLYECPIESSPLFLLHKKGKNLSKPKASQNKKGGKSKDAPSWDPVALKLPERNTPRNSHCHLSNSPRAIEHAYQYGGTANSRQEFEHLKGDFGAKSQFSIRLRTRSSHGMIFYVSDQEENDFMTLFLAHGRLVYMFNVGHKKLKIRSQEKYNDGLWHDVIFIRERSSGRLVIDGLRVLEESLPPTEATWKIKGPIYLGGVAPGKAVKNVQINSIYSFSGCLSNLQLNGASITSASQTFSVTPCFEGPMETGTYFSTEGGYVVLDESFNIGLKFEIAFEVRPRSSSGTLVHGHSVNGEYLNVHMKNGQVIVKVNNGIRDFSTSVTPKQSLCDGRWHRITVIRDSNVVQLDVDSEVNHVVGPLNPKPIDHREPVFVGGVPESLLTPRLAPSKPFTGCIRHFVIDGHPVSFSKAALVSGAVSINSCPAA

T1: mouse MCAM on stably transfected CHO cells (CHO.mMCAM) (mouse) (UniProt Q8R2Y2)
T1 sequence: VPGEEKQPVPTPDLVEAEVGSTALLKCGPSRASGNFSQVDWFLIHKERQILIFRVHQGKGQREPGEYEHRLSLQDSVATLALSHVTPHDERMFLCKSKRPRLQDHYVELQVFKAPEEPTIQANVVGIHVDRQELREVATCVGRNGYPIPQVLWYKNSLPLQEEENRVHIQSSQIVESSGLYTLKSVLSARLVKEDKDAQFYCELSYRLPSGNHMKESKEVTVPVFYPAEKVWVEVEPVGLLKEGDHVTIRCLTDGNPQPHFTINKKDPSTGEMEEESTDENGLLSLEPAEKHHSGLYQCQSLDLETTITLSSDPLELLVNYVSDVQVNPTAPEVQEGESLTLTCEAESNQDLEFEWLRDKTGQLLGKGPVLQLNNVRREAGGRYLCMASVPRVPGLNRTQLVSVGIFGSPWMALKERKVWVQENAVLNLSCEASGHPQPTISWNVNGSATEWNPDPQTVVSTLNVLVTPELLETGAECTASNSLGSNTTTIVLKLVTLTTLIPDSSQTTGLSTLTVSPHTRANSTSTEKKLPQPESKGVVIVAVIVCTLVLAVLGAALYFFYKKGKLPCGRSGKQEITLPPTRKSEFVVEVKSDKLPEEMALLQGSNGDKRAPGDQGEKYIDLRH


What was measured:
[1] = target: T1, mouse MCAM on stably transfected CHO cells (CHO.mMCAM) (mouse); assay: flow cytometry on cells; CHO.mMCAM or parental CHO cells incubated 30 minutes at 37°C with recombinant laminin 411 or 511 (20 µg/mL), washed, bound laminin detected with fluorescently labeled pan laminin antibody; where indicated cells preincubated 15 minutes with 10 µg/mL neutralizing anti-mouse MCAM; only the binder purified
[2] = target: T1, mouse MCAM on stably transfected CHO cells (CHO.mMCAM) (mouse); assay: flow cytometry on cells; soluble MCAM-Fc on CHO cells transfected with MCAM and sorted for high expressors, compared with human IgG control and Fc-tagged CTLA-4; only the binder purified

| Molecule | binding [1] | binding [2] |
| --- | --- | --- |
| recombinant laminin 511 (from UniProt O15230 36-3695; P07942 22-1786; P11047 34-1609) (complex) | no binding (tested: 20 µg/mL) |  |
| recombinant human laminin 411 (from UniProt Q16363 25-1823; P07942 22-1786; P11047 34-1609) (complex) | binds |  |
| mMCAM-Fc protein (Fc fusion, UniProt Q8R2Y2 24-563, fluorescently labeled when used as a staining reagent on tissue) VPGEEKQPVPTPDLVEAEVGSTALLKCGPSRASGNFSQVDWFLIHKERQILIFRVHQGKGQREPGEYEHRLSLQDSVATLALSHVTPHDERMFLCKSKRPRLQDHYVELQVFKAPEEPTIQANVVGIHVDRQELREVATCVGRNGYPIPQVLWYKNSLPLQEEENRVHIQSSQIVESSGLYTLKSVLSARLVKEDKDAQFYCELSYRLPSGNHMKESKEVTVPVFYPAEKVWVEVEPVGLLKEGDHVTIRCLTDGNPQPHFTINKKDPSTGEMEEESTDENGLLSLEPAEKHHSGLYQCQSLDLETTITLSSDPLELLVNYVSDVQVNPTAPEVQEGESLTLTCEAESNQDLEFEWLRDKTGQLLGKGPVLQLNNVRREAGGRYLCMASVPRVPGLNRTQLVSVGIFGSPWMALKERKVWVQENAVLNLSCEASGHPQPTISWNVNGSATEWNPDPQTVVSTLNVLVTPELLETGAECTASNSLGSNTTTIVLKLVTLTTLIPDSSQTTGLSTLTVSPHTRANSTSTEKKLPQPESKGVV |  | no binding |
